Laboratory results: PubChem BioAssay AID1224830 (NIAID, 2016)

Aim: 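Regulators of TLR4 signalling towards TNF-alpha in macrophage-like cells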 (primary screen)
Cells: human THP-1 monocytic leukaemia cells, TNF dual-luciferase reporter clone, PMA-differentiated to macrophage-like cells
Reagent: siRNA pool against human genes, 50 nM
Duration: LPS for 4 h, given about 3 days after siRNA transfection
Conditions: bacterial LPS (TLR4 ligand), 10 ng/ml
Detection: 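Ratio of firefly to renilla light, scaled to the plate median and expressed as a robust z-score per replicate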
Reading the numbers: TNF reporter robust z-score: higher = stronger TNF reporter response to LPS
Active means: 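a well is active when its z-score exceeds 2.8 or falls below -1.5; control wells carry no call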
This is one part, drawn at random, of about 18,000 reagents tested. About 2,900 of all reagents (16%) were called active. 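Calls are made per well; low scores hint the gene aids the LPS response, high scores that it dampens it.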 Repeated entries: four replicate wells of each siRNA pool.

target | PubChem SID | TNF reporter robust z-score | activity call
CT47A10 (cancer/testis antigen family 47 member A10) | SID315465177 | 2.64 | inactive
CT47A10 (cancer/testis antigen family 47 member A10) | SID315465177 | 1.51 | inactive
CT47A10 (cancer/testis antigen family 47 member A10) | SID315465177 | 1.83 | inactive
CT47A10 (cancer/testis antigen family 47 member A10) | SID315465177 | 3.98 | active
GAGE5 (G antigen 5) | SID315448817 | 0.45 | inactive
GAGE5 (G antigen 5) | SID315448817 | -0.02 | inactive
GAGE5 (G antigen 5) | SID315448817 | 0.25 | inactive
GAGE5 (G antigen 5) | SID315448817 | 0.29 | inactive
FGFR2 (fibroblast growth factor receptor 2) | SID315448689 | 1.62 | inactive
FGFR2 (fibroblast growth factor receptor 2) | SID315448689 | 20.1 | active
FGFR2 (fibroblast growth factor receptor 2) | SID315448689 | 1.45 | inactive
FGFR2 (fibroblast growth factor receptor 2) | SID315448689 | 1.15 | inactive
ANGPTL8 (angiopoietin like 8) | SID315457945 | 0.12 | inactive
ANGPTL8 (angiopoietin like 8) | SID315457945 | 0.03 | inactive
ANGPTL8 (angiopoietin like 8) | SID315457945 | 0.37 | inactive
ANGPTL8 (angiopoietin like 8) | SID315457945 | 1.42 | inactive
C1QL1 (complement C1q like 1) | SID315454424 | 0.26 | inactive
C1QL1 (complement C1q like 1) | SID315454424 | 0.4 | inactive
C1QL1 (complement C1q like 1) | SID315454424 | 0.19 | inactive
C1QL1 (complement C1q like 1) | SID315454424 | -0.31 | inactive
GNPNAT1 (glucosamine-phosphate N-acetyltransferase 1) | SID315459017 | -0.42 | inactive
GNPNAT1 (glucosamine-phosphate N-acetyltransferase 1) | SID315459017 | -0.7 | inactive
GNPNAT1 (glucosamine-phosphate N-acetyltransferase 1) | SID315459017 | -0.78 | inactive
GNPNAT1 (glucosamine-phosphate N-acetyltransferase 1) | SID315459017 | -0.23 | inactive
BAIAP3 (BAI1 associated protein 3) | SID315452941 | -1.42 | inactive
BAIAP3 (BAI1 associated protein 3) | SID315452941 | -1.43 | inactive
BAIAP3 (BAI1 associated protein 3) | SID315452941 | -1.05 | inactive
BAIAP3 (BAI1 associated protein 3) | SID315452941 | -1.16 | inactive
CNST (consortin, connexin sorting protein) | SID315462798 | -0.38 | inactive
CNST (consortin, connexin sorting protein) | SID315462798 | -0.04 | inactive
CNST (consortin, connexin sorting protein) | SID315462798 | 0.01 | inactive
CNST (consortin, connexin sorting protein) | SID315462798 | -0.74 | inactive
GALNT2 (polypeptide N-acetylgalactosaminyltransferase 2) | SID315448829 | 0.69 | inactive
GALNT2 (polypeptide N-acetylgalactosaminyltransferase 2) | SID315448829 | 1.39 | inactive
GALNT2 (polypeptide N-acetylgalactosaminyltransferase 2) | SID315448829 | 0 | inactive
GALNT2 (polypeptide N-acetylgalactosaminyltransferase 2) | SID315448829 | 1.09 | inactive
METTL22 (methyltransferase 22, Kin17 lysine) | SID315459208 | -0.54 | inactive
METTL22 (methyltransferase 22, Kin17 lysine) | SID315459208 | 0.46 | inactive
METTL22 (methyltransferase 22, Kin17 lysine) | SID315459208 | -0.38 | inactive
METTL22 (methyltransferase 22, Kin17 lysine) | SID315459208 | -0.39 | inactive
KPRP (keratinocyte proline rich protein) | SID315464987 | 3.65 | active
KPRP (keratinocyte proline rich protein) | SID315464987 | 2.28 | inactive
KPRP (keratinocyte proline rich protein) | SID315464987 | 1.4 | inactive
KPRP (keratinocyte proline rich protein) | SID315464987 | 0.61 | inactive
TMBIM1 (transmembrane BAX inhibitor motif containing 1) | SID315458834 | -0.6 | inactive
TMBIM1 (transmembrane BAX inhibitor motif containing 1) | SID315458834 | -0.78 | inactive
TMBIM1 (transmembrane BAX inhibitor motif containing 1) | SID315458834 | -0.52 | inactive
TMBIM1 (transmembrane BAX inhibitor motif containing 1) | SID315458834 | -1.25 | inactive
TPM2 (tropomyosin 2) | SID315451953 | -0.12 | inactive
TPM2 (tropomyosin 2) | SID315451953 | 0.9 | inactive
TPM2 (tropomyosin 2) | SID315451953 | 0.15 | inactive
TPM2 (tropomyosin 2) | SID315451953 | 0.31 | inactive
ZNF20 (zinc finger protein 20) | SID315452203 | -0.34 | inactive
ZNF20 (zinc finger protein 20) | SID315452203 | -0.98 | inactive
ZNF20 (zinc finger protein 20) | SID315452203 | -2.03 | active
ZNF20 (zinc finger protein 20) | SID315452203 | -1.14 | inactive
SPATA31G1 (SPATA31 subfamily G member 1) | SID315462050 | -0.77 | inactive
SPATA31G1 (SPATA31 subfamily G member 1) | SID315462050 | -0.46 | inactive
SPATA31G1 (SPATA31 subfamily G member 1) | SID315462050 | -0.32 | inactive
SPATA31G1 (SPATA31 subfamily G member 1) | SID315462050 | -0.58 | inactive
GABRB2 (gamma-aminobutyric acid type A receptor subunit beta2) | SID315448803 | -1.48 | inactive
GABRB2 (gamma-aminobutyric acid type A receptor subunit beta2) | SID315448803 | 0.88 | inactive
GABRB2 (gamma-aminobutyric acid type A receptor subunit beta2) | SID315448803 | -1.37 | inactive
GABRB2 (gamma-aminobutyric acid type A receptor subunit beta2) | SID315448803 | -1.09 | inactive
SCARB2 (scavenger receptor class B member 2) | SID315447786 | -0.97 | inactive
SCARB2 (scavenger receptor class B member 2) | SID315447786 | -0.31 | inactive
SCARB2 (scavenger receptor class B member 2) | SID315447786 | -0.91 | inactive
SCARB2 (scavenger receptor class B member 2) | SID315447786 | -1.09 | inactive
AASDH (aminoadipate-semialdehyde dehydrogenase) | SID315461934 | -0.37 | inactive
AASDH (aminoadipate-semialdehyde dehydrogenase) | SID315461934 | 0.03 | inactive
AASDH (aminoadipate-semialdehyde dehydrogenase) | SID315461934 | 0.13 | inactive
AASDH (aminoadipate-semialdehyde dehydrogenase) | SID315461934 | -0.21 | inactive
SFRP5 (secreted frizzled related protein 5) | SID315451383 | 0.18 | inactive
SFRP5 (secreted frizzled related protein 5) | SID315451383 | 1.94 | inactive
SFRP5 (secreted frizzled related protein 5) | SID315451383 | 1.5 | inactive
SFRP5 (secreted frizzled related protein 5) | SID315451383 | 2.82 | active
CTSL (cathepsin L) | SID315448181 | 0.06 | inactive
CTSL (cathepsin L) | SID315448181 | 1.89 | inactive
CTSL (cathepsin L) | SID315448181 | -1.16 | inactive
CTSL (cathepsin L) | SID315448181 | 1.1 | inactive
PCDHA6 (protocadherin alpha 6) | SID315458023 | -0.6 | inactive
PCDHA6 (protocadherin alpha 6) | SID315458023 | -0.76 | inactive
PCDHA6 (protocadherin alpha 6) | SID315458023 | -1.19 | inactive
PCDHA6 (protocadherin alpha 6) | SID315458023 | -0.1 | inactive
TUBA1A (tubulin alpha 1a) | SID315452323 | -1.54 | active
TUBA1A (tubulin alpha 1a) | SID315452323 | -1.06 | inactive
TUBA1A (tubulin alpha 1a) | SID315452323 | -1.19 | inactive
TUBA1A (tubulin alpha 1a) | SID315452323 | 0.4 | inactive
PGBD1 (piggyBac transposable element derived 1) | SID315460403 | 2.27 | inactive
PGBD1 (piggyBac transposable element derived 1) | SID315460403 | 2.13 | inactive
PGBD1 (piggyBac transposable element derived 1) | SID315460403 | 2.05 | inactive
PGBD1 (piggyBac transposable element derived 1) | SID315460403 | 2.94 | active
DDN (dendrin) | SID315454997 | -0.72 | inactive
DDN (dendrin) | SID315454997 | -0.41 | inactive
DDN (dendrin) | SID315454997 | -0.09 | inactive
DDN (dendrin) | SID315454997 | -0.45 | inactive
BORCS8-MEF2B (BORCS8-MEF2B readthrough) | SID315449931 | -1.2 | inactive
BORCS8-MEF2B (BORCS8-MEF2B readthrough) | SID315449931 | -1.68 | active
BORCS8-MEF2B (BORCS8-MEF2B readthrough) | SID315449931 | -1.69 | active
BORCS8-MEF2B (BORCS8-MEF2B readthrough) | SID315449931 | -0.85 | inactive
ZMIZ2 (zinc finger MIZ-type containing 2) | SID315460039 | -1.49 | inactive
ZMIZ2 (zinc finger MIZ-type containing 2) | SID315460039 | -1.57 | active
ZMIZ2 (zinc finger MIZ-type containing 2) | SID315460039 | -0.34 | inactive
ZMIZ2 (zinc finger MIZ-type containing 2) | SID315460039 | -0.37 | inactive
KRTAP3-2 (keratin associated protein 3-2) | SID315460125 | -0.07 | inactive
KRTAP3-2 (keratin associated protein 3-2) | SID315460125 | -0.44 | inactive
KRTAP3-2 (keratin associated protein 3-2) | SID315460125 | -0.46 | inactive
KRTAP3-2 (keratin associated protein 3-2) | SID315460125 | -0.48 | inactive
UVSSA (UV stimulated scaffold protein A) | SID315458527 | -0.12 | inactive
UVSSA (UV stimulated scaffold protein A) | SID315458527 | -0.35 | inactive
UVSSA (UV stimulated scaffold protein A) | SID315458527 | 0.07 | inactive
UVSSA (UV stimulated scaffold protein A) | SID315458527 | -0.98 | inactive
